Measured values from article PMC3424243.
No constants are given. Whether binding was seen depends on the method and setting. Binding can be weak; no strength is given.

Chains of the proteins cited; added tags and fusions are not shown. Lines headed by an entry give the natural chain unless they say otherwise; changes in a name come on top.
UniProt Q17604: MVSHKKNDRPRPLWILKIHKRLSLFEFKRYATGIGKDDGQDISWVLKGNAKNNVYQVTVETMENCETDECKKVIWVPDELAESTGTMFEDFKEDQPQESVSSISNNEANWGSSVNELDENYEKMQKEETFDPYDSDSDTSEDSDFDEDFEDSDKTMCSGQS
UniProt Q27497: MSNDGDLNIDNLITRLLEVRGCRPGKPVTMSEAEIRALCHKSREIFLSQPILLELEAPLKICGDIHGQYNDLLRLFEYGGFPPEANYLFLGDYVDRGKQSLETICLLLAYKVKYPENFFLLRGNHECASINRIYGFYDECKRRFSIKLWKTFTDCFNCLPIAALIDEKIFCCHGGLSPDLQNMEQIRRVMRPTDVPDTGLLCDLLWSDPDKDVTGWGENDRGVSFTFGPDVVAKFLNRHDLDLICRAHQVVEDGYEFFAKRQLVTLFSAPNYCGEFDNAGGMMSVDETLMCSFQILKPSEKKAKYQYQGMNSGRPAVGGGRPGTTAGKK
UniProt P48727: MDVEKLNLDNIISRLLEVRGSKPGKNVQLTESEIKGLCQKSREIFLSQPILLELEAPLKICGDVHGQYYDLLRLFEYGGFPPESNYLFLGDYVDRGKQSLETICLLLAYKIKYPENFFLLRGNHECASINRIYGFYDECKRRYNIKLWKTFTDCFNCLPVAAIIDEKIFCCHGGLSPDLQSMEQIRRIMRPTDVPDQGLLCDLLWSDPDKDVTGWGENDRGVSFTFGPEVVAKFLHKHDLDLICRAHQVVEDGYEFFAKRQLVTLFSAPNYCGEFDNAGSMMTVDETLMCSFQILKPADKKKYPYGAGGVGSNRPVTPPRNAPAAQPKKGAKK

What was measured:
Test in all cases: far-Western, overlay or dot blot; 0.8 µg of each protein resolved on 12.5% SDS-PAGE and transferred to nitrocellulose; blocked in PBSTBM (PBS, 1% Tween 20, 5% dry milk, 1% BSA); incubated overnight at 4°C with 2 µg/ml of the binding protein in PBSTBM; probed with antibodies; both orientations used; both purified
[1] = biological target: LAB-1 lacking the putative PP1 binding motif (ΔPP1), purified recombinant (C. elegans) (UniProt Q17604)
[2] = biological target: GSP-1 (PP1 homolog), purified recombinant (C. elegans) (UniProt Q27497)
[3] = biological target: GSP-2 (PP1 homolog), purified recombinant (C. elegans) (UniProt P48727)

| binding [1] | binding [2] | binding [3] | Substance |
| --- | --- | --- | --- |
| binds |  |  | GSP-1 (PP1 homolog), purified recombinant (from UniProt Q27497 1-329) (enzyme) |
|  | binds | binds | LAB-1 lacking the putative PP1 binding motif (ΔPP1), purified recombinant (from UniProt Q17604) |
